# Assay results taken from the supplement of paper PMC8728848.
# Some of the results follow.
# Experiments:
# Experiment in all cases: glycan array binding signal (z-score within array); higher = stronger binding
# Details in all cases: glycan notation: IUPAC condensed, linker removed
# [1] = target: Gal(b1-4)GlcNAc(b1-3)Gal(b1-4)GlcNAc(b1-3)Gal(b1-4)GlcNAc(b1-3)Gal(b1-4)GlcNAc(b1-2)Man(a1-3)[Gal(b1-4)GlcNAc(b1-3)Gal(b1-4)GlcNAc(b1-3)Gal(b1-4)GlcNAc(b1-3)Gal(b1-4)GlcNAc(b1-2)Man(a1-6)]Man(b1-4)GlcNAc(b1-4)[Fuc(a1-6)]GlcNAc
# How it was run: (§1)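 The binding signal is a Z-score computed within each array. Data were drawn from 3228 arrays in the Consortium for Functional Glycomics database, restricted to those with a known protein sequence. Scores were averaged over arrays of the same protein sequence at different concentrations or buffers, and over linkers, and negative values can be taken as non-binding.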
# [2] = target: Gal(b1-4)GlcNAc(b1-3)Gal(b1-4)GlcNAc(b1-3)Gal(b1-4)GlcNAc(b1-3)Gal(b1-4)GlcNAc(b1-2)[Gal(b1-4)GlcNAc(b1-3)Gal(b1-4)GlcNAc(b1-3)Gal(b1-4)GlcNAc(b1-3)Gal(b1-4)GlcNAc(b1-6)]Man(a1-6)[Gal(b1-4)GlcNAc(b1-3)Gal(b1-4)GlcNAc(b1-3)Gal(b1-4)GlcNAc(b1-3)Gal(b1-4)GlcNAc(b1-2)Man(a1-3)]Man(b1-4)GlcNAc(b1-4)[Fuc(a1-6)]GlcNAc
# How it was run: as §1
# [3] = target: Gal(b1-4)GlcNAc(b1-3)Gal(b1-4)GlcNAc(b1-3)Gal(b1-4)GlcNAc(b1-3)Gal(b1-4)GlcNAc(b1-3)Gal(b1-4)GlcNAc(b1-2)Man(a1-3)[Gal(b1-4)GlcNAc(b1-3)Gal(b1-4)GlcNAc(b1-3)Gal(b1-4)GlcNAc(b1-3)Gal(b1-4)GlcNAc(b1-3)Gal(b1-4)GlcNAc(b1-2)Man(a1-6)]Man(b1-4)GlcNAc(b1-4)GlcNAc
# How it was run: as §1
# [4] = target: Gal(b1-4)GlcNAc(b1-3)Gal(b1-4)GlcNAc(b1-3)Gal(b1-4)GlcNAc(b1-3)Gal(b1-4)GlcNAc(b1-3)Gal(b1-4)GlcNAc(b1-2)Man(a1-3)[Gal(b1-4)GlcNAc(b1-3)Gal(b1-4)GlcNAc(b1-3)Gal(b1-4)GlcNAc(b1-3)Gal(b1-4)GlcNAc(b1-3)Gal(b1-4)GlcNAc(b1-2)Man(a1-6)]Man(b1-4)GlcNAc(b1-4)[Fuc(a1-6)]GlcNAc
# How it was run: as §1
# [5] = target: Gal(b1-4)GlcNAc(b1-3)Gal(b1-4)GlcNAc(b1-3)Gal(b1-4)GlcNAc(b1-3)Gal(b1-4)GlcNAc(b1-3)Gal(b1-4)GlcNAc(b1-2)[Gal(b1-4)GlcNAc(b1-3)Gal(b1-4)GlcNAc(b1-3)Gal(b1-4)GlcNAc(b1-3)Gal(b1-4)GlcNAc(b1-3)Gal(b1-4)GlcNAc(b1-6)]Man(a1-6)[Gal(b1-4)GlcNAc(b1-3)Gal(b1-4)GlcNAc(b1-3)Gal(b1-4)GlcNAc(b1-3)Gal(b1-4)GlcNAc(b1-3)Gal(b1-4)GlcNAc(b1-2)Man(a1-3)]Man(b1-4)GlcNAc(b1-4)[Fuc(a1-6)]GlcNAc
# How it was run: as §1
# [6] = target: Gal(b1-4)GlcNAc(b1-3)Gal(b1-4)GlcNAc(b1-3)Gal(b1-4)GlcNAc(b1-3)Gal(b1-4)GlcNAc(b1-3)Gal(b1-4)GlcNAc(b1-3)Gal(b1-4)GlcNAc(b1-2)Man(a1-3)[Gal(b1-4)GlcNAc(b1-3)Gal(b1-4)GlcNAc(b1-3)Gal(b1-4)GlcNAc(b1-3)Gal(b1-4)GlcNAc(b1-3)Gal(b1-4)GlcNAc(b1-3)Gal(b1-4)GlcNAc(b1-2)Man(a1-6)]Man(b1-4)GlcNAc(b1-4)GlcNAc
# How it was run: as §1
# [7] = target: Gal(b1-4)GlcNAc(b1-3)Gal(b1-4)GlcNAc(b1-3)GalNAc
# How it was run: as §1
# [8] = target: Gal(b1-4)GlcNAc(b1-3)Gal(b1-4)GlcNAc(b1-3)[Gal(b1-4)GlcNAc(b1-3)Gal(b1-4)GlcNAc(b1-6)]GalNAc
# How it was run: as §1
# [9] = target: Gal(b1-4)GlcNAc(b1-3)Gal(b1-4)GlcNAc(b1-6)[Gal(b1-3)]GalNAc
# How it was run: as §1
# [10] = target: Gal(b1-4)GlcNAc(b1-3)Gal(b1-4)[Fuc(a1-3)]GlcNAc(b1-3)Gal(b1-4)[Fuc(a1-3)]GlcNAc
# How it was run: as §1
# [11] = target: Gal(b1-4)GlcNAc(b1-3)GalNAc
# How it was run: as §1
# [12] = target: Gal(b1-4)GlcNAc(b1-3)[Fuc(a1-3)GlcNAc(b1-6)]Gal(b1-4)Glc
# How it was run: as §1
# [13] = target: Gal(b1-4)GlcNAc(b1-3)[Gal(b1-4)GlcNAc(b1-6)]Gal(b1-4)GlcNAc
# How it was run: as §1
# [14] = target: Gal(b1-4)GlcNAc(b1-3)[GlcNAc(b1-6)]Gal(b1-4)GlcNAc
# How it was run: as §1
# [15] = target: Gal(b1-4)GlcNAc(b1-6)Gal(b1-4)GlcNAc
# How it was run: as §1
# [16] = target: Gal(b1-4)GlcNAc(b1-6)GalNAc
# How it was run: as §1
# [17] = target: Gal(b1-4)GlcNAc(b1-6)[Gal(b1-3)]GalNAc
# How it was run: as §1
# [18] = target: Gal(b1-4)GlcNAc(b1-6)[Gal(b1-4)GlcNAc(b1-3)]GalNAc
# How it was run: as §1
# Gal(b1-4)GlcNAc6P = target: Gal(b1-4)GlcNAc6P
# How it was run: as §1
# Gal(b1-6)Gal = target: Gal(b1-6)Gal
# How it was run: as §1
# Gal3S(b1-3)GalNAc = target: Gal3S(b1-3)GalNAc
# How it was run: as §1
# Gal3S(b1-3)GlcNAc = target: Gal3S(b1-3)GlcNAc
# How it was run: as §1
# [19] = target: Gal3S(b1-3)[Fuc(a1-4)]GlcNAc
# How it was run: as §1
binder,measurement,setting,value
"AntigenI/IIA3VP1 (Streptococcus mutans), C9E3B4 (protein) AANEADYQAKLTAYQTELARVQKANADAKAAYEAAVAANNAANAALTAENTAIKKRNADAKADYEAKLAKYQADLAKYQKDLADYPVKLKAYEDEQASIKAALAELEKHKNEDGNLTEPSAQNLVYDLEPNANLSLTTDGKFLKASAVDDAFSKSTSKAKYDQKILQLDDLDITNLEQSNDVASSMELYGNFGDKAGWSTTVSNNSQVKWGSVLLERGQSATATYTNLQNSYYNGKKISKIVYKYTVDPKSKFQGQKVWLGIFTDPTLGVFASAYTGQVEKNTSIFIKNEFTFYDEDGKPINFDNALLSVASLNREHNSIEMAKDYSGKFVKISGSSIGEKNGMIYATDTLNFKQGEGGSRWTMYKNSQAGSGWDSSDAPNSWYGAGAIKMSGPNNYVTVGATSATNVMPVSDMPVVPGKDNTDGKKPNIWYSLNGKIRAVNVPKVTKEKPTPPVKPTAPTKPTYETEKPLKPAPVAPNYEKEPTPPTRLEHHHHHH",glycan array binding signal (z-score),[1],3.27
same,glycan array binding signal (z-score),[2],2.27
same,glycan array binding signal (z-score),[3],2.2
same,glycan array binding signal (z-score),[4],1.3
same,glycan array binding signal (z-score),[5],1.71
same,glycan array binding signal (z-score),[6],3.91
same,glycan array binding signal (z-score),[7],2
same,glycan array binding signal (z-score),[8],0.339
same,glycan array binding signal (z-score),[9],-0.398
same,glycan array binding signal (z-score),[10],-0.717
same,glycan array binding signal (z-score),[11],-1.15
same,glycan array binding signal (z-score),[12],-0.738
same,glycan array binding signal (z-score),[13],0.6
same,glycan array binding signal (z-score),[14],0.525
same,glycan array binding signal (z-score),[15],-0.192
same,glycan array binding signal (z-score),[16],-0.203
same,glycan array binding signal (z-score),[17],0.419
same,glycan array binding signal (z-score),[18],0.429
same,glycan array binding signal (z-score),Gal(b1-4)GlcNAc6P,-0.924
same,glycan array binding signal (z-score),Gal(b1-6)Gal,-0.488
same,glycan array binding signal (z-score),Gal3S(b1-3)GalNAc,-1.05
same,glycan array binding signal (z-score),Gal3S(b1-3)GlcNAc,-0.67
same,glycan array binding signal (z-score),[19],0.515
